Results are given in words; binding and its absence hold for the method and conditions named. Binding seen in cells or lysates may run through a third protein. Here binding means that the protein was enriched with, or labelled near, the bait; the list need not be complete. One block for each molecule: values may come before it.
Biological target: T1, POGZ (endogenous, mouse ESCs) (mouse (endogenous in mouse ESCs)) (UniProt Q8BZH4)
T1 sequence: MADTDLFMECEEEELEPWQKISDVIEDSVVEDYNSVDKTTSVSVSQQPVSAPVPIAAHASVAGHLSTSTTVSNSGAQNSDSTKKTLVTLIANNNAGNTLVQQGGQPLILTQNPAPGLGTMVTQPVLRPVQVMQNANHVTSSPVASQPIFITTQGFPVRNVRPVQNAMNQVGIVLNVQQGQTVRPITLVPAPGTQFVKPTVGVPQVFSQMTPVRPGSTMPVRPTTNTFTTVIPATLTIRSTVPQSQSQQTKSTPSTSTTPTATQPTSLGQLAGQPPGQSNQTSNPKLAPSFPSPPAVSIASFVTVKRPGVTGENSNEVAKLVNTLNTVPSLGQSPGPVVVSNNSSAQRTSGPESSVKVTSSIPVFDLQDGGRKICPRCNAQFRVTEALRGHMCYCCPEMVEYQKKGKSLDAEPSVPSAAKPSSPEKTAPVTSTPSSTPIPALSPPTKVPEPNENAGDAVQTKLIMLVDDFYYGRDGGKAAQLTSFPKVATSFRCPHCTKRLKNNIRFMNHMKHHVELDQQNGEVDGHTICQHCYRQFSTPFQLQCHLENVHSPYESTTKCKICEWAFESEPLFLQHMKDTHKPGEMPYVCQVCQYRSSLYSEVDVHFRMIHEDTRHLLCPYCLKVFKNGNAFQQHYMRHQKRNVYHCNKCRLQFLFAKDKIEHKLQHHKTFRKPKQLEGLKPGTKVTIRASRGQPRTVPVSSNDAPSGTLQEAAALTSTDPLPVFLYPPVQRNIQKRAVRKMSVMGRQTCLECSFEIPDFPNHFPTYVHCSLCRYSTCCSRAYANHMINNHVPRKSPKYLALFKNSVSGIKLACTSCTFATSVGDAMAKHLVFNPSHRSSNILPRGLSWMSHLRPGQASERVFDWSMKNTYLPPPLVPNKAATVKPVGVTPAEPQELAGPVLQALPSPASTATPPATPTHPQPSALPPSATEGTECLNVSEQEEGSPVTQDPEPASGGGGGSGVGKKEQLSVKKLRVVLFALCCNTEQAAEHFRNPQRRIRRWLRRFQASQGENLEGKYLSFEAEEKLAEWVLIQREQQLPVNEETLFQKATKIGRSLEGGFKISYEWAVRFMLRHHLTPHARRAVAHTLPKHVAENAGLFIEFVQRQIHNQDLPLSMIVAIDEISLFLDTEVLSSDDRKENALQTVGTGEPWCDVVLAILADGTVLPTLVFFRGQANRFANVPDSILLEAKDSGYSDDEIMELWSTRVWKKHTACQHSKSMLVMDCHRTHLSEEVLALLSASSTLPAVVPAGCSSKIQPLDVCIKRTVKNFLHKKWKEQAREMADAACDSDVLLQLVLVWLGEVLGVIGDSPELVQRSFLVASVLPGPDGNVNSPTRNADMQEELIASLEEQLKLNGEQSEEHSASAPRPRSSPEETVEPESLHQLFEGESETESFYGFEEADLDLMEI
Experiment: affinity purification with mass spectrometry

By UniProt entry, the sequences of proteins in these tests, tags left out.
UniProt P97496: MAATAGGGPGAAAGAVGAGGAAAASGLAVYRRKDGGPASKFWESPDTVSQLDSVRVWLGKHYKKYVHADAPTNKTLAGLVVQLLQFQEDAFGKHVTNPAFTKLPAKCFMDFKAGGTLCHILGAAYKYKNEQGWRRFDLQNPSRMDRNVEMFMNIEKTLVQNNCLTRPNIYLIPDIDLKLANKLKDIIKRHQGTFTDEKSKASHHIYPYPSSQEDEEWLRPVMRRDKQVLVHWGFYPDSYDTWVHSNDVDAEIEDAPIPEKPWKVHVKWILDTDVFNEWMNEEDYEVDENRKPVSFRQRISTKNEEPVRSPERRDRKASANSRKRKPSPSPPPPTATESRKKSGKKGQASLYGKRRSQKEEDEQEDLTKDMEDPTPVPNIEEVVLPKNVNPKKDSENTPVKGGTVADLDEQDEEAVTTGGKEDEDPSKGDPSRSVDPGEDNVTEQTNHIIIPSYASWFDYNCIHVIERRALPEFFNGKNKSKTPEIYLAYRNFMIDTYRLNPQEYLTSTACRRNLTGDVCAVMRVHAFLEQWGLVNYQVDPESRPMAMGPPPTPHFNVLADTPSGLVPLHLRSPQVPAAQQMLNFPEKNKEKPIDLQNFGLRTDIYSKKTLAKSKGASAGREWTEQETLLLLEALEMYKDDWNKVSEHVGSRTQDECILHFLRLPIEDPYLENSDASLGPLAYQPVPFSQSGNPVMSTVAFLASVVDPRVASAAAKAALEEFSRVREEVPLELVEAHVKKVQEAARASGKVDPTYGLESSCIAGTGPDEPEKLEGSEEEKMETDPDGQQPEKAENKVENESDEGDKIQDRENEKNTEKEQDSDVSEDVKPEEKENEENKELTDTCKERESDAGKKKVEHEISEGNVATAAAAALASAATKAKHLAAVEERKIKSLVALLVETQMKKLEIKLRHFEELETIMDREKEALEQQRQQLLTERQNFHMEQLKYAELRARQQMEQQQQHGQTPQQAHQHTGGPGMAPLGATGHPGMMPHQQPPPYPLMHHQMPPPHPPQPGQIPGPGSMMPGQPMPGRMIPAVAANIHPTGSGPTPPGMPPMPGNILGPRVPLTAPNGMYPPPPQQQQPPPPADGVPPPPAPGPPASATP
UniProt Q61466: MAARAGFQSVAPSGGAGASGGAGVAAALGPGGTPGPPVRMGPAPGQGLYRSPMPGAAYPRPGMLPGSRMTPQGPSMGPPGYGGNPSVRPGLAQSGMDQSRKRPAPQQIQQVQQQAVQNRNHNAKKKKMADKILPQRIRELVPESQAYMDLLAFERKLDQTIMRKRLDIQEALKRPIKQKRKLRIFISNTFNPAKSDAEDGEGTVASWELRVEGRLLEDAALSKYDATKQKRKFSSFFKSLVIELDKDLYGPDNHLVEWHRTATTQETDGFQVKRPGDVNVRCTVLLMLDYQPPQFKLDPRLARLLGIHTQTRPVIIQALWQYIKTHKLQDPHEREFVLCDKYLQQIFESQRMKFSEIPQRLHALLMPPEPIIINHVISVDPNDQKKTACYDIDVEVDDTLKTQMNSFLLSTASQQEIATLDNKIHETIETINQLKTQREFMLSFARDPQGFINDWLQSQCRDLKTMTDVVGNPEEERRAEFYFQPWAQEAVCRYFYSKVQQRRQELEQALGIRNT

B1: Nono (mouse ESCs) (protein, UniProt Q99K48 1-473)
chain: MQSNKAFNLEKQNHTPRKHHQHHHQQHHQQQQQQQQQQPPPPIPANGQQASSQNEGLTIDLKNFRKPGEKTFTQRSRLFVGNLPPDITEEEMRKLFEKYGKAGEVFIHKDKGFGFIRLETRTLAEIAKVELDNMPLRGKQLRVRFACHSASLTVRNLPQYVSNELLEEAFSVFGQVERAVVIVDDRGRPSGKGIVEFSGKPAARKALDRCSEGSFLLTTFPRPVTVEPMDQLDDEEGLPEKLVIKNQQFHKEREQPPRFAQPGSFEYEYAMRWKALIEMEKQQQDQVDRNIKEAREKLEMEMEAARHEHQVMLMRQDLMRRQEELRRMEELHNQEVQKRKQLELRQEEERRRREEEMRRQQEEMMRRQQEGFKGTFPDAREQEIRMGQMAMGGAMGINNRGAMPPAPVPPGTPAPPGPATMMPDGTLGLTPPTTERFGQAATMEGIGAIGGTPPAFNRPAPGAEFAPNKRRRY
binding: binds

B2: Mybbp1a (mouse ESCs) (protein, UniProt Q7TPV4 1-1344)
chain: MAEMKSPTKAEPATPAEAAQSDRHSLLEHSREFLDFFWDIAKPDQETRLRATEKLLEYLRTRPNDSEMKYALKRLITGLGVGREAARPCYSLALAQLLQSFEDIPLCDILDQIQEKYSLQAMNKAMMRPSLFANLFGVLALFQSGRLVKDKEALMKSVQLLKILSQHPNHLQGQPIKALVDILSEVPESMFQEILPKVLKGNMKVILRSPKYLELFLLAKQRVPTKLESLMGSVDLFSEDNIPSLVNILKVAANSVKKEHKLPNVALDLLRLALKESRFELFWKKVLEEGLLKNPSWTSSYMCFRLLGASLPLLSEEQLQLVMRGDLIRHFGENMVISKPQNLFKIIPEISTYVGTFLEGCQDDPKRQLTMMVAFTTITNQGLPVMPTFWRVTRFLNAEALQSYVAWLRDMFLQPDLNSLVDFSTANQKRAQDASLNVPERAVFRLRKWIIHRLVSLVDHLHLEKDEAVVEQIARFCLFHAFFKTKKATPQIPETKQHFSFPLDDRNRGVFVSAFFSLLQTLSVKFRQTPDLAENGKPWTYRLVQLADMLLNHNRNVTSVTSLTTQQRQAWDQMMSTLKELEARSSETRAIAFQHLLLLVGLHIFKSPAESCDVLGDIQTCIKKSMEQNPRRSRSRAKASQEPVWVEVMVEILLSLLAQPSNLMRQVVRSVFGHICPHLTPRCLQLILAVLSPVTNEDEDDNVVVTDDADEKQLQHGEDEDSDNEDNKNSESDMDSEDGEESEEEDRDKDVDPGFRQQLMEVLKAGNALGGVDNEEEEELGDEAMMALDQNLASLFKEQKMRIQARNEEKNKLQKEKKLRRDFQIRALDLIEVLVTKQPEHPLILELLEPLLNVIQHSMRSKGSTKQEQDLLHKTARIFMHHLCRARRYCHEVGPCAEALHAQVERLVQQAGSQADASVALYYFNASLYLLRVLKGNTNKRHQDGHKLHGADTEDSEDQAANCLDLDFVTRVYSASLESLLTKRNSSLTVPMFLSLFSRYPVICKNLLPVLAQHVAGPSRPRHQAQACLMLQKTLSARELRVCFEDPEWEQLITQLLGKATQTLQTLGEAQSKGEHQKELSILELLNTLLRTVNHEKLSVDLTAPLGVLQSKQQKLQQSLQQGNHSSGSNRLYDLYWQAMRMLGVQRPKSEKKNAKDIPSDTQSPVSTKRKKKGFLPETKKRKKLKSEGTTPEKNAASQQDAVTEGAMPAATGKDQPPSTGKKKRKRVKASTPSQVNGITGAKSPAPSNPTLSPSTPAKTPKLQKKKEKLSQVNGATPVSPIEPESKKHHQEALSTKEVIRKSPHPQSALPKKRARLSLVSRSPSLLQSGVKKRRVASRRVQTP
binding: binds

Continued, values first:

binding: binds
Molecule: SMARCC1/BAF155 (endogenous, mouse ESCs) (from UniProt P97496 1-1104)

binding: binds
Molecule: SMARCD1/BAF60a (mouse ESCs) (from UniProt Q61466 1-515)

binding: binds
B3: Sfpq (mouse ESCs) (protein, UniProt Q8VIJ6 1-699)
chain: MSRDRFRSRGGGGGGFHRRGGGGGRGGLHDFRSPPPGMGLNQNRGPMGPGPGGPKPPLPPPPPHQQQQQPPPQQPPPQQPPPHQQPPPHQPPHQQPPPPPQESKPVVPQGPGSAPGVSSAPPPAVSAPPANPPTTGAPPGPGPTPTPPPAVPSTAPGPPPPSTPSSGVSTTPPQTGGPPPPPAGGAGPGPKPGPGPGGPKGGKMPGGPKPGGGPGMGAPGGHPKPPHRGGGEPRGGRQHHAPYHQQHHQGPPPGGPGPRTEEKISDSEGFKANLSLLRRPGEKTYTQRCRLFVGNLPADITEDEFKRLFAKYGEPGEVFINKGKGFGFIKLESRALAEIAKAELDDTPMRGRQLRVRFATHAAALSVRNLSPYVSNELLEEAFSQFGPIERAVVIVDDRGRSTGKGIVEFASKPAARKAFERCSEGVFLLTTTPRPVIVEPLEQLDDEDGLPEKLAQKNPMYQKERETPPRFAQHGTFEYEYSQRWKSLDEMEKQQREQVEKNMKDAKDKLESEMEDAYHEHQANLLRQDLMRRQEELRRMEELHSQEMQKRKEMQLRQEEERRRREEEMMIRQREMEEQMRRQREESYSRMGYMDPRERDMRMGGGGTMNMGDPYGSGGQKFPPLGGGGGIGYEANPGVPPATMSGSMMGSDMRTERFGQGGAGPVGGQGPRGMGPGTPAGYGRGREEYEGPNKKPRF
